The test concerns the target T1, OsSHMT (serine hydroxymethyltransferase, LOC_Os03g52840) fused with GFP (rice (Oryza sativa)) (UniProt Q10D68).
T1 sequence: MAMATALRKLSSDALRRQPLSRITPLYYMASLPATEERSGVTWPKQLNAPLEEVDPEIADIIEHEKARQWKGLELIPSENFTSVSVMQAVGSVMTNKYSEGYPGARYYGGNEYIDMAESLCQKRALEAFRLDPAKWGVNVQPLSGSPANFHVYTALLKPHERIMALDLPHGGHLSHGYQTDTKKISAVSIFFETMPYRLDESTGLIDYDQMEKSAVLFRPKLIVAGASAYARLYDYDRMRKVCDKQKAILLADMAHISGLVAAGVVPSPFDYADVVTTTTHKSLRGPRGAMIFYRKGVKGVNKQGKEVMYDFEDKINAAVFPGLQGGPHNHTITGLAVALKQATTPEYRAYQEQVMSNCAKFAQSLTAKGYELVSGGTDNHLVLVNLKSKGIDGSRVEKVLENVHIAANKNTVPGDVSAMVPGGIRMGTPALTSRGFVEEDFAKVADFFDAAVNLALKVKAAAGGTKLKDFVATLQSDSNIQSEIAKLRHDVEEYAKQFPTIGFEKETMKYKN
Nature of the test: affinity purification with mass spectrometry; GFP-Trap agarose (Chromotek) incubated with natural leaf proteins of T3 homozygous OsSHMT-GFP transgenic A. thaliana; GFP-only transgenic line as control; co-precipitated proteins identified by LC-MS.

Chains of the proteins cited; added tags and fusions are not shown.
UniProt P56757: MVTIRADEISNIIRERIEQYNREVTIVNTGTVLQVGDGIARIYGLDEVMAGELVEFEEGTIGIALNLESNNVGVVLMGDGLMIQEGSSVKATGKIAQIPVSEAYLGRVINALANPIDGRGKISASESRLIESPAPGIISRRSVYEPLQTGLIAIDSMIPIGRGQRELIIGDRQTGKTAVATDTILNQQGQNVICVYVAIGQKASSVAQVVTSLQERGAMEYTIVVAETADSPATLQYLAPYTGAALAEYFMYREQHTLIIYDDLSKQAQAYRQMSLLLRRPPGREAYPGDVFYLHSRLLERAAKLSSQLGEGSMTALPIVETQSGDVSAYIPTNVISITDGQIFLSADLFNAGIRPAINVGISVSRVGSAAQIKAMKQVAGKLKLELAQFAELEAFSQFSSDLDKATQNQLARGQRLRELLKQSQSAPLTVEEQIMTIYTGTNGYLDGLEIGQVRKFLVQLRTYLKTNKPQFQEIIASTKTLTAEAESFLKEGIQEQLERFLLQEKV
UniProt P19366: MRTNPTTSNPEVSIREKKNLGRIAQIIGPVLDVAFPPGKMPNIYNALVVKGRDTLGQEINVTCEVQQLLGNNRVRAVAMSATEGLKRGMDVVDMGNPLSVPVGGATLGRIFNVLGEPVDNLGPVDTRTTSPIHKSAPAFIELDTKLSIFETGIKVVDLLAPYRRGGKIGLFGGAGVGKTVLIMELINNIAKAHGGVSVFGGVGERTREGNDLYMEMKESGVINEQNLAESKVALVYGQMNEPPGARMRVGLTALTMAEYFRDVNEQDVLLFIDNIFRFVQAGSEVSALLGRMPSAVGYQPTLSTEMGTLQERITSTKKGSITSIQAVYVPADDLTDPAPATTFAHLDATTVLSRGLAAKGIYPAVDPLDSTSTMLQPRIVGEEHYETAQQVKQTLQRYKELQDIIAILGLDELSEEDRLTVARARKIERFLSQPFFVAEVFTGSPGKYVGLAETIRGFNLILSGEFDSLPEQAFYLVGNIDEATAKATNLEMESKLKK
UniProt P22954: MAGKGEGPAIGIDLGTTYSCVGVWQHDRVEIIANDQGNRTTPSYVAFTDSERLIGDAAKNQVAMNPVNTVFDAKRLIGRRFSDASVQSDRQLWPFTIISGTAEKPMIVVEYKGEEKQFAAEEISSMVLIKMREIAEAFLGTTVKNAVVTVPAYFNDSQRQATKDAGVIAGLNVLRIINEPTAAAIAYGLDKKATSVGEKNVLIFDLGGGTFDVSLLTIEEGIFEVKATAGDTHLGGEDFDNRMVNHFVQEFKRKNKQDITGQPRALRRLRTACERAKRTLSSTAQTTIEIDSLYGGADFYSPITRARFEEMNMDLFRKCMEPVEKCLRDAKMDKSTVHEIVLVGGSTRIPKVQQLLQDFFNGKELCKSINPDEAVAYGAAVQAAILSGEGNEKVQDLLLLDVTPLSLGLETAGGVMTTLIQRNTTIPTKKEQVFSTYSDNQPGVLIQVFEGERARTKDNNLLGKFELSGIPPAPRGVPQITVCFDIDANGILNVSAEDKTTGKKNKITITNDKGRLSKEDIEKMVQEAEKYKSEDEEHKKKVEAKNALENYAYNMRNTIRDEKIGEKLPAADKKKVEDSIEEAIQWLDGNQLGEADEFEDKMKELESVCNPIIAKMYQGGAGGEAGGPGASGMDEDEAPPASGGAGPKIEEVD

Data on five molecules can be found in paper PMC7249644.

These are yes or no findings as the source states them, for the method shown. In cells and extracts the contact can be indirect. A yes stands for co-enrichment or nearness to the bait. Other partners may have been found. Where a sequence is shown, tags or fusion partners need not be part of it.

Consider “ATP synthase subunit alpha (ATCG00120.1), A. thaliana (from UniProt P56757 1-507)”, for which the binding result was “binds”.
Turning to “ATP synthase subunit beta (ATCG00480.1), A. thaliana (from UniProt P19366 1-498)”, the binding entry is “binds”.
For the molecule “Heat shock protein 70 (Hsp 70) family protein (AT5G02490.1), A. thaliana (from UniProt P22954 1-653)”, the binding result is given as “binds”.

B1: Mitochondrial substrate carrier family protein (AT5G46800.1), A. thaliana (protein, UniProt Q93XM7 1-300)
chain: MADAWKDLASGTVGGAAQLVVGHPFDTIKVKLQSQPTPAPGQLPRYTGAIDAVKQTVASEGTKGLYKGMGAPLATVAAFNAVLFTVRGQMEGLLRSEAGVPLTISQQFVAGAGAGFAVSFLACPTELIKCRLQAQGALAGASTTSSVVAAVKYGGPMDVARHVLRSEGGARGLFKGLFPTFAREVPGNATMFAAYEAFKRFLAGGSDTSSLGQGSLIMAGGVAGASFWGIVYPTDVVKSVLQVDDYKNPRYTGSMDAFRKILKSEGVKGLYKGFGPAMARSVPANAACFLAYEMTRSSLG
As for B1, the binding result is on record as “binds”.

B2: ascorbate peroxidase 1 (AT1G07890.2), A. thaliana (enzyme, UniProt Q05431 1-250)
chain: MTKNYPTVSEDYKKAVEKCRRKLRGLIAEKNCAPIMVRLAWHSAGTFDCQSRTGGPFGTMRFDAEQAHGANSGIHIALRLLDPIREQFPTISFADFHQLAGVVAVEVTGGPDIPFHPGREDKPQPPPEGRLPDATKGCDHLRDVFAKQMGLSDKDIVALSGAHTLGRCHKDRSGFEGAWTSNPLIFDNSYFKELLSGEKEGLLQLVSDKALLDDPVFRPLVEKYAADEDAFFADYAEAHMKLSELGFADA
Regarding B2, the binding result is listed as “binds”.
